Laboratory results published in the supplement of paper PMC6411743.
± gives the standard deviation of the averaged measurements. This is a selection; strong and weak results do not stand in their true shares.

Amino acid sequences for entries named in this document (tags omitted). A change or cut given only in a name is not applied to a line headed by its entry.
UniProt P61803: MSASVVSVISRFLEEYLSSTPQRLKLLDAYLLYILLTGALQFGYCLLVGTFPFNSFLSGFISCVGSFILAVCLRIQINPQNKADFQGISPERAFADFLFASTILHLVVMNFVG
UniProt Q9Y324: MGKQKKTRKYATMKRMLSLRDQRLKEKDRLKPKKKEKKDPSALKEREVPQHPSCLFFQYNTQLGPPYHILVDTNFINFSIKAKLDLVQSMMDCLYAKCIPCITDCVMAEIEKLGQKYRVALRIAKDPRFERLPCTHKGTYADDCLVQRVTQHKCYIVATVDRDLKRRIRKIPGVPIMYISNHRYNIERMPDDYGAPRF
UniProt P32322: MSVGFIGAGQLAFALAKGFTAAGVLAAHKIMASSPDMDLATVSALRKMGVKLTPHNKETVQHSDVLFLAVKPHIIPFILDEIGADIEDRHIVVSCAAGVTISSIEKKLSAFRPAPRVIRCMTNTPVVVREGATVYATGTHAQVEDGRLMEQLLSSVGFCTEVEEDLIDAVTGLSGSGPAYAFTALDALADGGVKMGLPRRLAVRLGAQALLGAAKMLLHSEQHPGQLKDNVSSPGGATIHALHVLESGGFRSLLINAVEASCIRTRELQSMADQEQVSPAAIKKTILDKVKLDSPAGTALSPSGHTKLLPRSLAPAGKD
UniProt O75496: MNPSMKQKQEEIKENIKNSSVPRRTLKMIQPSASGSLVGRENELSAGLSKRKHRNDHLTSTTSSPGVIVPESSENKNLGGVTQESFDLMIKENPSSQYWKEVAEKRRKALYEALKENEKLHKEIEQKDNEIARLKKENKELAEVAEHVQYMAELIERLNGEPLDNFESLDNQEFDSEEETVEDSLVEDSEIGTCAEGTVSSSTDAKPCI
UniProt Q14493, whole entry, looked up: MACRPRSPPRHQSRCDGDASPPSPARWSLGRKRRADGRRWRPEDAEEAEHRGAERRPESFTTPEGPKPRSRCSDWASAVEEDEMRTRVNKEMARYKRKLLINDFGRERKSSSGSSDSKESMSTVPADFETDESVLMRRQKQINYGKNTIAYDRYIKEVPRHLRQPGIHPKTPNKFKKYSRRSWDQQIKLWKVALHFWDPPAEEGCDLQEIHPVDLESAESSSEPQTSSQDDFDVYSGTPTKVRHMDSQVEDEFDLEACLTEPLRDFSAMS
UniProt Q9Y485, whole entry: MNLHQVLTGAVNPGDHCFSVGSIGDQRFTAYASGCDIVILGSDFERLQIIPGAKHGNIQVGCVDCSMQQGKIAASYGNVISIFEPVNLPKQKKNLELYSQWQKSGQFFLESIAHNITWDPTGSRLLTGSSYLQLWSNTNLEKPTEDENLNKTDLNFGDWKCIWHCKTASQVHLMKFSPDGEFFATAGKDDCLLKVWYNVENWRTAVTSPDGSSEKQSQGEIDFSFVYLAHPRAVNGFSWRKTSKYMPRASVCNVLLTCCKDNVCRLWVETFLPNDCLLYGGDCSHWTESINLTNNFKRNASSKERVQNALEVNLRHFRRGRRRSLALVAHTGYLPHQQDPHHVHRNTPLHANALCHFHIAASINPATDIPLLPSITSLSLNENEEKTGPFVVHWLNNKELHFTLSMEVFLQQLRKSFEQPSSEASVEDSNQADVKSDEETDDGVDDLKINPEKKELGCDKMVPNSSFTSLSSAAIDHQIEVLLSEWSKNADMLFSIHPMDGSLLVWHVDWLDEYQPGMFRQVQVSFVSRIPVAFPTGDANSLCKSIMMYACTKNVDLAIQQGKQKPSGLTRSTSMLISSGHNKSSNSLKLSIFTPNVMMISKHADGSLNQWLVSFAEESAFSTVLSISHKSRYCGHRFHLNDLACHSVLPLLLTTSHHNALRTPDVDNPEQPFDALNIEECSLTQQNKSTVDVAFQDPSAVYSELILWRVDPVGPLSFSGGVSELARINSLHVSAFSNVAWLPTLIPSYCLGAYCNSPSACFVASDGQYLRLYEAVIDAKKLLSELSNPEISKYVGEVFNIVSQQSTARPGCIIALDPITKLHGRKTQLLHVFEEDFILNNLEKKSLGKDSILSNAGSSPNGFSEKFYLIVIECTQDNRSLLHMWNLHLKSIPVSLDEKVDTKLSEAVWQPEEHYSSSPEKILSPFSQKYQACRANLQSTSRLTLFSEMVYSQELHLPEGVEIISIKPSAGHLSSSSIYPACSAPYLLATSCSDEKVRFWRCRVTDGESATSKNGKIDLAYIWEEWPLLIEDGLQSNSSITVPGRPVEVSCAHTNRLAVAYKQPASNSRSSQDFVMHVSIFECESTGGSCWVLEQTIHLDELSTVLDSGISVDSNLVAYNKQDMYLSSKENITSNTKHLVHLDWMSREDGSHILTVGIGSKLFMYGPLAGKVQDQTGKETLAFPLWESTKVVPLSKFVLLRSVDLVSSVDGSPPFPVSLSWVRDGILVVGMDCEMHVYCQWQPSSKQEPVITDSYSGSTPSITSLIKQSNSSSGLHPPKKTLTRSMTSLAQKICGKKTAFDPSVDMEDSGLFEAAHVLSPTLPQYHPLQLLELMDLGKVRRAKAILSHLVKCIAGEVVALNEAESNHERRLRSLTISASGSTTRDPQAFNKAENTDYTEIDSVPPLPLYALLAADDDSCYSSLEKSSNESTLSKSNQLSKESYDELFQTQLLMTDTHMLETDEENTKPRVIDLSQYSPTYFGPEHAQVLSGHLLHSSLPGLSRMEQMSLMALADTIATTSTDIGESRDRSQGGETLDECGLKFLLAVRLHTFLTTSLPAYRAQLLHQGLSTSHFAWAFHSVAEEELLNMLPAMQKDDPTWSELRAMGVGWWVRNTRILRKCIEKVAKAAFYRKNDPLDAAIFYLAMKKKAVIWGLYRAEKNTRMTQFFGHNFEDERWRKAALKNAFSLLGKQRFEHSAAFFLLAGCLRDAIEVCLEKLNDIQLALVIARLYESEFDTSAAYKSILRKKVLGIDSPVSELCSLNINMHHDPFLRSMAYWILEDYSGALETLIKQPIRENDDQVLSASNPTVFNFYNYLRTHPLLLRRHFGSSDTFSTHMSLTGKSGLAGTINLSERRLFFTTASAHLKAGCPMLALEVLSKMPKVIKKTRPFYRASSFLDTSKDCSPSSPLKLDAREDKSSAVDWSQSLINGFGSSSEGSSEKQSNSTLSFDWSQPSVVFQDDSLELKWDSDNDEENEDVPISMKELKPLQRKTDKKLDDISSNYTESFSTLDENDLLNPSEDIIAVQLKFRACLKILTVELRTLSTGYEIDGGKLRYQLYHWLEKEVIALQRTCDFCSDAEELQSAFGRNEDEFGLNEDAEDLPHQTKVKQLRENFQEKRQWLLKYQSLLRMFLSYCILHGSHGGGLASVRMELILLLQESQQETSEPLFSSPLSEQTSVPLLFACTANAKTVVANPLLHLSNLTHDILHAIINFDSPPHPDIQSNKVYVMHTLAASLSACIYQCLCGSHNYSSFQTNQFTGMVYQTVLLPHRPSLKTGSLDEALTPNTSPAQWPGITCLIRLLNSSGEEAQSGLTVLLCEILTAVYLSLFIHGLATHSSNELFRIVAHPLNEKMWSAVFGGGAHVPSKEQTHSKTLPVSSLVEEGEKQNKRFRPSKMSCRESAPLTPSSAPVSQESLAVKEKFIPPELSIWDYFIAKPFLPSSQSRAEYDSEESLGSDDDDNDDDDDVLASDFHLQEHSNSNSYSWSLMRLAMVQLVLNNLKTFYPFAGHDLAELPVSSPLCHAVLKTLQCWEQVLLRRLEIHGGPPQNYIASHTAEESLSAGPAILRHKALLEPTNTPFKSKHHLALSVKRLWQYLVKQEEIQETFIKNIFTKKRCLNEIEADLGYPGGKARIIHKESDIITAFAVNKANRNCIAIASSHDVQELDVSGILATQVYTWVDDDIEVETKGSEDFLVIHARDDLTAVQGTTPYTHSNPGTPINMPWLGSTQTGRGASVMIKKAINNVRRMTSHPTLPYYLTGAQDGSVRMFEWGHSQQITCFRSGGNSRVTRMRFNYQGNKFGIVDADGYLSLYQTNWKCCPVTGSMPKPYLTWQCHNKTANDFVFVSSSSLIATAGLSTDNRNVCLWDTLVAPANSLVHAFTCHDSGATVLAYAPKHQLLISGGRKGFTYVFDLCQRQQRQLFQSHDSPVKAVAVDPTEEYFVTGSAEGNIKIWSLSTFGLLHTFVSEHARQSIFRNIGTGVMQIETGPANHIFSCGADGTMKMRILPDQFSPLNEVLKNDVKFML
UniProt Q9NZN5: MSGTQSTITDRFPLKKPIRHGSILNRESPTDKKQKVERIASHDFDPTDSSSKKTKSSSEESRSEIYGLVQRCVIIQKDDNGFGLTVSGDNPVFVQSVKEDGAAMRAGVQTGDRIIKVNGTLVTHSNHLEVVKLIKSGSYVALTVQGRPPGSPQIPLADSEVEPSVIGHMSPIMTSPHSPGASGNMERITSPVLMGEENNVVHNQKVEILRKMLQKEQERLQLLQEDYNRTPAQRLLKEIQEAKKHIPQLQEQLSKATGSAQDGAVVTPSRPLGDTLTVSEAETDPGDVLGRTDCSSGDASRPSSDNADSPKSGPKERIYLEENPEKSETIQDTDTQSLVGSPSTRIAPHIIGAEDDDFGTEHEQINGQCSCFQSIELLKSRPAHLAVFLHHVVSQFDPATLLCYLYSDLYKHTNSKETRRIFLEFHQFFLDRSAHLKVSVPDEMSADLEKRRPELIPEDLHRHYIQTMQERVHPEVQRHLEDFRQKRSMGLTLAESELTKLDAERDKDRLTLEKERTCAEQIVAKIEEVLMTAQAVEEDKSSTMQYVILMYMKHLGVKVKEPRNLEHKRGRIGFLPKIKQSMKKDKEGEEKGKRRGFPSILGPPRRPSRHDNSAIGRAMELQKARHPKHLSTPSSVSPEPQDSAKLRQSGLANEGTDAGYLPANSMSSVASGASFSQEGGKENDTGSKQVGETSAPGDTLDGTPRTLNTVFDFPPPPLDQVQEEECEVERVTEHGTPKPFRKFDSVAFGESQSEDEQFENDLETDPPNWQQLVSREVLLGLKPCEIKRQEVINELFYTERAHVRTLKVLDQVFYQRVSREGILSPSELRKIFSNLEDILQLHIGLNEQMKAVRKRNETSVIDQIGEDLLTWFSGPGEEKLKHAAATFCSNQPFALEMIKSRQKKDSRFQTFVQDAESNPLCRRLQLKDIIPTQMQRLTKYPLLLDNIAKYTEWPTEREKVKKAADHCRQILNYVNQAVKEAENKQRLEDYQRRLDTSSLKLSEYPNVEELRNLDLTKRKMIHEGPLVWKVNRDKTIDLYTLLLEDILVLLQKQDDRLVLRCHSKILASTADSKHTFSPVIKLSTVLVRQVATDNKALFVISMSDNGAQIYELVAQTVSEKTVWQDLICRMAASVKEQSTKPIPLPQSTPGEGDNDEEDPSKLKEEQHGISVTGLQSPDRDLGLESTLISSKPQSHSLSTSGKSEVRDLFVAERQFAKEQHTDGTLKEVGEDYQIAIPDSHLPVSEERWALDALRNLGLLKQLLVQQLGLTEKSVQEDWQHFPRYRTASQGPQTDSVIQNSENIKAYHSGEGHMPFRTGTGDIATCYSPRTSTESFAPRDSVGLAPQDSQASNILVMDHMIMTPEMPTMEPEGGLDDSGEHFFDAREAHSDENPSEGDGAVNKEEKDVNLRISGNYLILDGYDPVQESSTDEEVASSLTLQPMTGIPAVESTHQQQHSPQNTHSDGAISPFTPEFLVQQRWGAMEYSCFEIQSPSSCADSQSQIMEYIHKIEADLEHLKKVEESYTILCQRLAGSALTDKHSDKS
UniProt Q9UJX4, whole entry: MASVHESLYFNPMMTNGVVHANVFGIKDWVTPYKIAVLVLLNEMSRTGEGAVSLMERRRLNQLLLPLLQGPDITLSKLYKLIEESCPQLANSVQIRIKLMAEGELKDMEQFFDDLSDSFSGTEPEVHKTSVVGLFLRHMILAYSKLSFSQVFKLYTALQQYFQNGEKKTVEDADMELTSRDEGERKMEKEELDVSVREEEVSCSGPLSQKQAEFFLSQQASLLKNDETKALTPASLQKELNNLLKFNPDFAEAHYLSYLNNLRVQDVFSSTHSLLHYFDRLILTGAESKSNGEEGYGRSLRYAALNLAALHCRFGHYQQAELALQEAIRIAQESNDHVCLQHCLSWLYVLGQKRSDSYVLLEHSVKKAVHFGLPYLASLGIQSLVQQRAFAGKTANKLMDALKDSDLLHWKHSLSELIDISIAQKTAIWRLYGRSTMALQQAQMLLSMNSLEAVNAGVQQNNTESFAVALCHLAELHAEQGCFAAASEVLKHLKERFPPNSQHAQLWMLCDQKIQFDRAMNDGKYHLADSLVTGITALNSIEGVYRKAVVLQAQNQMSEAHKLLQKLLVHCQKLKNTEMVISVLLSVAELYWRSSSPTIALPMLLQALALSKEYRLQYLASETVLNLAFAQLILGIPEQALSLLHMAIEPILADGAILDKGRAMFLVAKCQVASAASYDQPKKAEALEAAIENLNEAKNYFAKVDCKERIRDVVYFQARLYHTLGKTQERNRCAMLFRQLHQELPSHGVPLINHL
UniProt P63208, whole entry: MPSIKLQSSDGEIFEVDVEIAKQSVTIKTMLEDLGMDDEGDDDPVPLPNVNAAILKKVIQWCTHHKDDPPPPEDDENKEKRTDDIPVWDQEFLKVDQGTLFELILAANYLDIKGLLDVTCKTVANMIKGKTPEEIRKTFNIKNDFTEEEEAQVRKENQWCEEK

Compound: Nc1ncnc2c1ncn2[C@@H]1O[C@H](COP(=O)(O)OP(=O)(O)OP(=O)(O)O)[C@@H](O)[C@H]1O [adenosine triphosphate]
Assay: NP40-soluble protein abundance relative to vehicle (solubility fold change) (ratio); higher = more soluble protein in presence of ATP
How it was run: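 Eight concentrations, 0.1 to 10 mM, were tested on Jurkat crude lysate for 10 min at room temperature and then 3 min at 37 °C, in three independent experiments. The lysate was solubilised with 0.8% NP40 and benzonase, ultracentrifuged, and the supernatant TMT-labelled for LC-MS/MS. Each value is the fold change against the detergent-processed vehicle in its own replicate, from vsn-normalised intensities.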

Row | Target | NP40-soluble protein abundance (concentration: 1mM) | NP40-soluble protein abundance (concentration: 2mM) | NP40-soluble protein abundance (concentration: 4mM) | NP40-soluble protein abundance (concentration: 6mM) | NP40-soluble protein abundance (concentration: 8mM) | NP40-soluble protein abundance (concentration: 10mM)
1 | G0XQ39 and related entries (UniProt Q13586) | 0.995 ± 0.047 | 0.984 ± 0.042 | 0.966 ± 0.026 | 1 ± 0.017 | 0.9554 ± 0.0038 | 0.966 ± 0.017
2 | E7EW59 and related entries (UniProt Q9Y467) | 1.06 ± 0.046 | 1.05 ± 0.059 | 1.03 ± 0.11 | 0.961 ± 0.013 | 0.9968 ± 0.0068 | 1.01 ± 0.064
3 | F5GXX5 and related entries (UniProt P61803) | 0.882 ± 0.097 | 0.901 ± 0.044 | 0.893 ± 0.016 | 0.9 ± 0.088 | 0.895 ± 0.013 | 0.906 ± 0.022
4 | E9PJD7 (UniProt P0DTL6) | 1.09 ± 0.079 | 1.08 ± 0.098 | 1.06 ± 0.056 | 1.05 ± 0.096 | 1.06 ± 0.17 | 1.06 ± 0.077
5 | G3V5N8 and related entries (UniProt Q9HBF4) | 0.996 ± 0.05 | 0.986 ± 0.057 | 0.979 ± 0.07 | 0.946 ± 0.11 | 0.972 ± 0.025 | 0.949 ± 0.031
6 | F2Z2U4 and related entries (UniProt Q9Y4A5) | 1.07 ± 0.073 | 1.035 ± 0.01 | 1.08 ± 0.035 | 1.03 ± 0.038 | 1.14 ± 0.054 | 1.14 ± 0.054
7 | F5H4V9 and related entries (UniProt Q16342) | 0.968 ± 0.032 | 0.989 ± 0.076 | 1 ± 0.081 | 1.12 ± 0.057 | 1.02 ± 0.043 | 1.06 ± 0.012
8 | F5H7W8 and related entries (UniProt Q96C57) | 1.1 ± 0.076 | 1.13 ± 0.077 | 1.24 ± 0.048 | 1.33 ± 0.077 | 1.31 ± 0.06 | 1.25 ± 0.15
9 | G3V1S4 and related entries (UniProt Q9Y324) | 1.2 ± 0.015 | 1.15 ± 0.094 | 1.28 ± 0.069 | 1.34 ± 0.044 | 1.48 ± 0.02 | 1.51 ± 0.11
10 | E2QRB3 and related entries (UniProt P32322) | 0.979 ± 0.011 | 0.985 ± 0.039 | 0.958 ± 0.018 | 0.975 ± 0.025 | 0.937 ± 0.014 | 0.96 ± 0.033
11 | E7EQL8 and related entries (UniProt Q96RT7) | 1 ± 0.15 | 1 ± 0.19 | 0.992 ± 0.17 | 1.1 ± 0.26 | 1.01 ± 0.16 | 1.08 ± 0.17
12 | F2Z2W7 and related entries (UniProt Q8IZ69) | 1.03 ± 0.066 | 1.02 ± 0.05 | 1.06 ± 0.024 | 1.04 ± 0.018 | 1.05 ± 0.022 | 1.1 ± 0.0026
13 | E2QRF9 and related entries (UniProt O75496) | 0.9557 ± 0.0071 | 0.916 ± 0.053 | 0.923 ± 0.015 | 0.91 ± 0.049 | 0.88 ± 0.029 | 0.882 ± 0.11
14 | F6S8M0 and related entries (UniProt P15586) | 0.948 ± 0.02 | 0.934 ± 0.039 | 0.914 ± 0.028 | 0.983 ± 0.045 | 0.909 ± 0.026 | 0.858 ± 0.07
15 | F8W8D3 and related entries (UniProt Q14493) | 1 ± 0.033 | 0.9936 ± 0.0089 | 0.977 ± 0.015 | 1.02 ± 0.051 | 0.968 ± 0.068 | 0.932 ± 0.065
16 | E9PJK5 and related entries (UniProt Q8N612) | 1.1 ± 0.18 | 1.08 ± 0.19 | 0.966 ± 0.19 | 1.32 ± 0.3 | 0.973 ± 0.032 | 1.13 ± 0.14

Looked up above:
E7EQL8 and related entries (UniProt Q96RT7) | NP40-soluble protein abundance (concentration: 2mM): 1 ± 0.19
G3V5N8 and related entries (UniProt Q9HBF4) | NP40-soluble protein abundance (concentration: 6mM): 0.946 ± 0.11

(next part)

Row | Target | NP40-soluble protein abundance (concentration: 1mM) | NP40-soluble protein abundance (concentration: 2mM) | NP40-soluble protein abundance (concentration: 4mM) | NP40-soluble protein abundance (concentration: 6mM) | NP40-soluble protein abundance (concentration: 8mM) | NP40-soluble protein abundance (concentration: 10mM)
17 | F8WCF6 and related entries (UniProt P59998) | 0.968 ± 0.13 | 0.957 ± 0.091 | 0.909 ± 0.073 | 0.889 ± 0.12 | 0.943 ± 0.075 | 0.92 ± 0.06
18 | F5H269 and related entries (UniProt Q9Y485) | 1.01 ± 0.023 | 0.9824 ± 0.0046 | 0.995 ± 0.096 | 1.06 ± 0.083 | 0.995 ± 0.066 | 1.01 ± 0.073
19 | E7EQN5 and related entries (UniProt P98171) | 1 ± 0.04 | 0.9972 ± 0.0072 | 0.981 ± 0.01 | 0.99 ± 0.015 | 0.9789 ± 0.0044 | 0.987 ± 0.028
20 | E9PMR6 and related entries (UniProt Q9NZN5) | 1.05 ± 0.092 | 0.991 ± 0.048 | 1.03 ± 0.071 | 1.02 ± 0.11 | 0.984 ± 0.092 | 0.948 ± 0.062
21 | UniProt F5H5P2 | 1.01 ± 0.011 | 0.99 ± 0.018 | 1.03 ± 0.034 | 1.02 ± 0.048 | 1.07 ± 0.05 | 1.06 ± 0.032
22 | G3V5T9 and related entries (UniProt P24941) | 0.98 ± 0.062 | 0.968 ± 0.044 | 0.968 ± 0.064 | 0.906 ± 0.1 | 0.96 ± 0.049 | 0.945 ± 0.031
23 | F8W6G1 and related entries (UniProt Q9UHY1) | 0.928 ± 0.04 | 0.958 ± 0.023 | 0.9836 ± 0.0027 | 0.9465 ± 0.0031 | 0.935 ± 0.057 | 0.959 ± 0.027
24 | G3XAJ6 and related entries (UniProt Q14699) | 0.964 ± 0.057 | 0.997 ± 0.036 | 1 ± 0.024 | 0.964 ± 0.018 | 0.976 ± 0.016 | 0.951 ± 0.025
25 | F5H1D6 and related entries (UniProt Q07864) | 1.08 ± 0.096 | 1.06 ± 0.088 | 1.09 ± 0.11 | 1.02 ± 0.1 | 1.12 ± 0.025 | 1.07 ± 0.11
26 | G3V553 and related entries (UniProt Q9NWQ4) | 1.05 ± 0.19 | 1.16 ± 0.12 | 1.23 ± 0.069 | 1.14 ± 0.075 | 1.23 ± 0.12 | 1.33 ± 0.23
27 | E3W994 and related entries (UniProt O75122) | 1.19 ± 0.087 | 1.21 ± 0.084 | 1.24 ± 0.087 | 1.28 ± 0.093 | 1.26 ± 0.086 | 1.3 ± 0.086
28 | F5H0F9 and related entries (UniProt Q9UJX4) | 1.13 ± 0.078 | 1.04 ± 0.034 | 1.02 ± 0.045 | 1 ± 0.12 | 1.09 ± 0.081 | 1.03 ± 0.11
29 | E9PFI7 and related entries (UniProt Q8N3A8) | 1 ± 0.087 | 1.07 ± 0.13 | 1.18 ± 0.086 | 1.07 ± 0.14 | 1.04 ± 0.13 | 1.05 ± 0.059
30 | F8W7U8 and related entries (UniProt P49959) | 1.01 ± 0.038 | 1.02 ± 0.027 | 1.02 ± 0.035 | 1.03 ± 0.025 | 1.02 ± 0.021 | 1.02 ± 0.032
31 | E7EPJ9 and related entries (UniProt P05120) | 0.927 ± 0.04 | 0.986 ± 0.076 | 0.936 ± 0.016 | 0.997 ± 0.056 | 0.95 ± 0.068 | 0.934 ± 0.016
32 | E5RJR5 and related entries (UniProt P63208) | 0.937 ± 0.089 | 0.96 ± 0.056 | 0.937 ± 0.048 | 0.99 ± 0.11 | 0.947 ± 0.018 | 0.899 ± 0.063
